Test results: paper PMC5996148
This is one part of the list. For some of these results: The source does not settle which construct or isoform was used.

Assays:
Experiment in all cases: protein microarray (ProtoArray v5.0), streptavidin-Alexa Fluor 647
Settings in all cases: 3'-biotin; 20 mM Tris (pH 7.5), 5 mM MgCl2, 100 mM KCl, 0.1% Tween-20, A/T-rich and random oligonucleotide blockers; temperature not stated; high values mean tight binding
C6orf89 (human) = test system: C6orf89 (human)
C7orf13 (human) = test system: C7orf13 (human)
C7orf24 (human) = test system: C7orf24 (human)
C7orf36 (human) = test system: C7orf36 (human)
C7orf41 (human) = test system: C7orf41 (human)
C8G (human) = test system: C8G (human)
C8orf43 (human) = test system: C8orf43 (human)
C8orf47 (human) = test system: C8orf47 (human)
C8orf59 = target: T1, C8orf59 (UniProt Q8N0T1)
T1 sequence: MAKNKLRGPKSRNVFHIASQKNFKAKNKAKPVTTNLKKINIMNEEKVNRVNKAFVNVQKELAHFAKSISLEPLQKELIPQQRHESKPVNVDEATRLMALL

C9orf148 (human) = test system: C9orf148 (human)

GGGGACAGGGGTATGGGGAGGGG [G4-3 biotinylated (CtG)]
binding signal (C6orf89 (human)): -0.331 z-score
binding signal (C7orf13 (human)): -0.297 z-score
binding signal (C7orf24 (human)): -0.314 z-score
binding signal (C7orf36 (human)): -0.343 z-score
binding signal (C7orf41 (human)): -0.342 z-score
binding signal (C8G (human)): -0.312 z-score
binding signal (C8orf43 (human)): -0.33 z-score
binding signal (C8orf47 (human)): -0.333 z-score
binding signal (C8orf59): 3.45 z-score
binding signal (C9orf148 (human)): -0.306 z-score
